One molecule from article PMC8599755 can be followed below.

The target in the test is T1, APEX2-RBM6 fusion (human (endogenous in MCF10A)) (UniProt P78332).
T1 sequence: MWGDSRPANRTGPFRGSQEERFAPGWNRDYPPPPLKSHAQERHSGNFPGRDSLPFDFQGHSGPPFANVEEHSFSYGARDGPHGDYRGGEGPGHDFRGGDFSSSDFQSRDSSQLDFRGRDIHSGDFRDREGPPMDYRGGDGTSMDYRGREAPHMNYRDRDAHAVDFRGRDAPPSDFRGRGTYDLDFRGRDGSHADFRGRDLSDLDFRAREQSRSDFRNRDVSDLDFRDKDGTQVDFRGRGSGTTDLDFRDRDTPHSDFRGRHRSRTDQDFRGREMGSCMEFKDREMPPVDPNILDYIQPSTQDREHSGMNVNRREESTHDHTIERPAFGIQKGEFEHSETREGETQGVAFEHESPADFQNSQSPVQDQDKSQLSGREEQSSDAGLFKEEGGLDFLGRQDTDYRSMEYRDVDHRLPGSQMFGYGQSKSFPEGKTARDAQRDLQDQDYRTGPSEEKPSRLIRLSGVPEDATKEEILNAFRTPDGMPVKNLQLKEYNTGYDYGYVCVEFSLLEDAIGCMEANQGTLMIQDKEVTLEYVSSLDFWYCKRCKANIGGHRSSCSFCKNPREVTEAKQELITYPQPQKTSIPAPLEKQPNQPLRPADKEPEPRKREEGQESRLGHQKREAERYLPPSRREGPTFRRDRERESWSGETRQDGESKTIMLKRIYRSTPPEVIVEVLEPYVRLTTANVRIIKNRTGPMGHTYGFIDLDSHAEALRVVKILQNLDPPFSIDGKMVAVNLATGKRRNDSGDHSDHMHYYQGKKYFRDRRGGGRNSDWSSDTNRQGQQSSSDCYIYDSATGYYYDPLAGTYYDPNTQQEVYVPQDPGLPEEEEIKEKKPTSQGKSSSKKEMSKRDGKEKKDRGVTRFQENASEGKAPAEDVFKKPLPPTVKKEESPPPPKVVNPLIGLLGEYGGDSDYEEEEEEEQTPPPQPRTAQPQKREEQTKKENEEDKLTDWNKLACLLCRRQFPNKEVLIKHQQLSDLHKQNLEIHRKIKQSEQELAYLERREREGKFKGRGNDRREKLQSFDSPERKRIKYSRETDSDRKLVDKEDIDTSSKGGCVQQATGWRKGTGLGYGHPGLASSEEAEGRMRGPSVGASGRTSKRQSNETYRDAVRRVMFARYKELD
Put plainly: proximity labelling; APEX2-RBM6 in MCF10A cells; biotin-phenol, activation with H2O2; biotinylated proteins isolated and subjected to mass spectrometry; compared with control MCF10A cells.

These are yes or no findings as the source states them, for the method shown. In cells and extracts the contact can be indirect. These calls come from enrichment with a bait or labelling near it, and not all partners need be listed. Sequences can lack the tags named with a protein.

B1: RNPS1 (protein, UniProt Q15287 1-305)
chain: MDLSGVKKKSLLGVKENNKKSSTRAPSPTKRKDRSDEKSKDRSKDKGATKESSEKDRGRDKTRKRRSASSGSSSTRSRSSSTSSSGSSTSTGSSSGSSSSSASSRSGSSSTSRSSSSSSSSGSPSPSRRRHDNRRRSRSKSKPPKRDEKERKRRSPSPKPTKVHIGRLTRNVTKDHIMEIFSTYGKIKMIDMPVERMHPHLSKGYAYVEFENPDEAEKALKHMDGGQIDGQEITATAVLAPWPRPPPRRFSPPRRMLPPPPMWRRSPPRMRRRSRSPRRRSPVRRRSRSPGRRRHRSRSSSNSSR
Regarding B1, the binding result is “binds”.
